Results reported in the supplement of paper PMC12889115.
Some of the results follow. These are raw signals, not scaled to a control.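 First-pass screen: polymyxin B was added at a level that permeabilizes the Salmonella outer membrane while sparing the inner membrane. DMSO wells, with and without polymyxin B, defined maximum growth. Because plates differed from one another, each plate's data were ranked separately and the compounds with the lowest OD600 were carried forward as hits.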

Tested on: Salmonella enterica serovar Typhimurium SL1344
Assay: bacterial growth OD600 after 18 h with compound and polymyxin B; higher = more bacterial growth (less inhibition)
Conditions: 50 µM, Mueller-Hinton broth

Structure (SMILES): CCO[C@H]1[C@H](NC(=O)c2ccco2)c2ccccc2C12CCN(C(=O)[C@@H]1C[C@@H](C)NC(=S)N1)CC2
- bacterial growth OD600 (polymyxin B 0.75 µg/mL): 0.845

Structure (SMILES): Cc1nc(-c2ccncc2)ncc1C(C)NCc1cccc(O)c1 (configuration not stated)
- bacterial growth OD600 (polymyxin B 0.75 µg/mL): 0.784

Structure (SMILES): CSc1nc(C(=O)N2CCc3ccc(NC(=O)c4ccccn4)cc3C2)cs1
- bacterial growth OD600 (polymyxin B 0.75 µg/mL): 0.636

Structure (SMILES): CC1CCN(Cc2nnnn2CC(=O)NC2CCCN(Cc3ccccc3)C2)CC1 (configuration not stated)
- bacterial growth OD600 (polymyxin B 1 µg/mL): 0.923

Structure (SMILES): C=CCC(=O)NC1CC(=O)N(Cc2ccccc2Cl)C1 (configuration not stated)
- bacterial growth OD600 (polymyxin B 1 µg/mL): 0.924

Structure (SMILES): O=C(Cc1cccc(C(F)(F)F)c1)N1CCC2(CC1)CC2C(=O)N1CCN(c2ccccn2)CC1 (configuration not stated)
- bacterial growth OD600 (polymyxin B 0.75 µg/mL): 0.834

Structure (SMILES): COc1ccc(C(=O)N(C)CC2CCCN(CCc3ccccc3OC)C2)cc1F (configuration not stated)
- bacterial growth OD600 (polymyxin B 1 µg/mL): 0.819

Structure (SMILES): Cc1c[nH]c(CNC(=O)c2cc(CN3CCC(Cc4ccccc4)CC3)on2)n1
- bacterial growth OD600 (polymyxin B 1 µg/mL): 0.857

Structure (SMILES): O=C(CCC1(Cc2ccc(Cl)cc2)CCC(=O)N1)NCc1cnn(-c2cccc(F)c2)c1 (configuration not stated)
- bacterial growth OD600 (polymyxin B 0.75 µg/mL): 0.814

Structure (SMILES): COc1cccc(CC(C2CCN(Cc3cccc(OCCO)c3)CC2)N(C)C(=O)c2ccco2)c1 (configuration not stated)
- bacterial growth OD600 (polymyxin B 0.75 µg/mL): 0.969

Structure (SMILES): Cn1ccc(CC(=O)N2CCC(C3CCN(Cc4cccnc4)CC3)C2)c1 (configuration not stated)
- bacterial growth OD600 (polymyxin B 0.75 µg/mL): 0.861

Structure (SMILES): CCN1CCN(C2(C(=O)NCCCC(=O)OC)Cc3ccccc3C2)CC1
- bacterial growth OD600 (polymyxin B 0.75 µg/mL): 0.83

Structure (SMILES): Cc1nc(CN2CCN(c3nc4nonc4nc3NC3CCCC3)CC2)cs1
- bacterial growth OD600 (polymyxin B 1 µg/mL): 0.87

Structure (SMILES): COc1cc(N2C[C@H]3OC(=O)N(CCCc4ccc(F)cc4)[C@H]3C2)ncn1
- bacterial growth OD600 (polymyxin B 1 µg/mL): 0.781

Structure (SMILES): CSCC(=O)NC1CC(=O)N(Cc2cccc(F)c2)C1 (configuration not stated)
- bacterial growth OD600 (polymyxin B 1 µg/mL): 0.808

Structure (SMILES): O=C(CC1(c2ccccc2Cl)CC(=O)N(C2CCCC2)C1=O)N1CCCCCC1 (configuration not stated)
- bacterial growth OD600 (polymyxin B 0.75 µg/mL): -0.001

Structure (SMILES): O=C(CC1=CCCCC1)N1CCCC(Nc2ccc(F)cc2)C1 (configuration not stated)
- bacterial growth OD600 (polymyxin B 1 µg/mL): 0.881

Structure (SMILES): CC(C)(C)NC(=O)NCc1cccnc1Oc1ccc(F)cc1F
- bacterial growth OD600 (polymyxin B 1 µg/mL): 0.685

Structure (SMILES): O=C(COc1ccccc1)N[C@@H]1c2ccccc2C2(CCN(Cc3c(F)ccc(F)c3F)CC2)[C@H]1O
- bacterial growth OD600 (polymyxin B 0.75 µg/mL): 0.79

Structure (SMILES): Cc1ccc(OCCN(C)C(=O)C2CC23CCN(C2CCSC2)CC3)cc1 (configuration not stated)
- bacterial growth OD600 (polymyxin B 0.75 µg/mL): 0.86

Structure (SMILES): CN(C)CCN1C(=O)NC(Cc2cccc(F)c2)(C2CCN(C(=O)C3=CCCCC3)CC2)C1=O (configuration not stated)
- bacterial growth OD600 (polymyxin B 0.75 µg/mL): 0.771

Structure (SMILES): CC(=O)NCCC(=O)N1CCCC(N2CCN(c3cccc(C(F)(F)F)c3)CC2)C1 (configuration not stated)
- bacterial growth OD600 (polymyxin B 1 µg/mL): 0.95

Structure (SMILES): O=C(NCCN1Cc2ccccc2OC(c2ccsc2)C1)c1ccc(Cn2cnnn2)cc1 (configuration not stated)
- bacterial growth OD600 (polymyxin B 0.75 µg/mL): 0.809

Structure (SMILES): COc1ccc(C(CC(=O)N2CCN(C)CC2)c2ccccc2)cc1 (configuration not stated)
- bacterial growth OD600 (polymyxin B 1 µg/mL): 0.862

Structure (SMILES): CCC1CN(C(=O)c2ccc(F)cc2)Cc2ccc(Cl)cc2O1 (configuration not stated)
- bacterial growth OD600 (polymyxin B 0.75 µg/mL): 0.393

Structure (SMILES): O=C(c1ccc(Cl)cc1OC1CCN(Cc2cccc(O)c2)CC1)N1CCCCC1
- bacterial growth OD600 (polymyxin B 1 µg/mL): 0.818

Structure (SMILES): COc1ccccc1OCc1cc(C(=O)N2CCN(C)C[C@@H]2c2ccccc2)n[nH]1
- bacterial growth OD600 (polymyxin B 1 µg/mL): 0.901

Structure (SMILES): CC(C)S(=O)(=O)NCc1cccnc1Oc1ccc(F)c(F)c1
- bacterial growth OD600 (polymyxin B 0.75 µg/mL): 0.775

Structure (SMILES): O=C(NCCCn1ncc2ccccc21)C1CCC(=O)N(CCN2CCOCC2)C1 (configuration not stated)
- bacterial growth OD600 (polymyxin B 1 µg/mL): 0.821

Structure (SMILES): O=C1O[C@@H]2CN(c3cnccn3)C[C@@H]2N1CCc1ccc(F)cc1
- bacterial growth OD600 (polymyxin B 0.75 µg/mL): 1

Structure (SMILES): CSc1ccccc1C(=O)NCc1c(C)ncc2c1CCN(C(=O)C1COc3ccccc3O1)C2 (configuration not stated)
- bacterial growth OD600 (polymyxin B 0.75 µg/mL): 0.804

Structure (SMILES): COc1ccccc1OC1CCN(C(=O)C2CCN(c3nc(C)c4cc(F)ccc4n3)CC2)CC1
- bacterial growth OD600 (polymyxin B 0.75 µg/mL): 0.749
